Changes are numbered by the printed parent chain. Results are given in words; binding and its absence hold for the method and conditions named. For some of these results: A result given as binding can be weak or reduced; the word gives no strength. Values belong to the binder of their own block, whether it stands above or below them.
Experiments:
[1] = target: CD33^ΔE3-4, artificial CD33 molecule that contains only the V-set domain; assay: binding to cells displaying CD33^ΔE3-4
[2] = target: hybrid protein: signal peptide of CD33^FL fused to CD33^ΔE2 (FL SP on CD33^ΔE2) (human); assay: binding to REH cells expressing hybrid CD33 proteins
[3] = target: hybrid protein: signal peptide of CD33^FL fused to CD33^ΔE2 (FL SP on CD33^ΔE2) (human); assay: flow cytometry on REH cells expressing FL SP on CD33ΔE2, goat anti-mouse APC secondary antibody
[4] = target: extracellular domain of CD33^ΔE2 with a 6-histidine-avidin tag (hsCD33_ΔE2-His-Avi) (human); assay: SPR (Biacore), antibody captured, soluble ectodomain MDT-239 as analyte

binding [1]: no binding
B1: anti-CD33 antibody 1H7 (antibody, mouse IgG2a, kappa, V domains shown)
VH: QVQLQQSGAELVKPGASVKISCKASGYAFSNYWMNWVKQRPGKGLEWIGQINPGDGDTNYNGKFKGKATLTADKSSSTAYMQLSSLTSEDSAVYFCAREDRDYFDYWGQGTTLTVSS
VL: DIQMTQTTSSLSASLGDRVTISCRASQDINYYLNWYQQKPDGTVKLLIYYSSRLHSGVPSRFSGSGSGTDFSLTISNLEQEDIATYFCQQDDALPYTFGGGTKLEIKR

binding [2]: binds | binding [3]: binds
B2: anti-CD33 antibody 11D5 (antibody, V domains shown)
VH: EVQFQQSETVLARPGTSVKLSCKASGYTFTSYWMHWLKQRPGQGLEWIGAIYCGNSDTSYNQKFKGKAKLTAVTSATTAYMELSSLTNEDSAVYYCKIYDGYHFDYWGQGTTLTVSS
VL: DIVMTQAAFSNPVTLGTSASISCRSNKSLLHSNGITYLYWYLQKPGQSPQLLIYQMSNLASGVPDRFSSSGSGTDFTLRISRVEAEDVGVYYCAQNLELPPTFGGGTKLEIKR

binding [4]: binds
B3: anti-CD33 antibody 12B12 (antibody, V domains shown)
VH: EVQLQQSGTVLARPGASVKMSCKASGYTFTTYWMHWIKQSPGQGLEWIGAIYPGNSDTSYNQKFKGKAKLTAVTSASTAYMELSSLTNEDSAVYYCEIYDGYHFIYWGQGTTLTVSS
VL: B2 VL with N26S, K27Q

— US20200148767A1
